Experimental data from patent CN112321709A.
These are yes or no findings as the source states them, for the method shown. In cells and extracts the contact can be indirect. Some binding calls cover weakened binding; strength is not graded here.

Biological target: T1, 7S Vicilin种子储藏蛋白(MiAMP2) (澳洲坚果 (macadamia)) (UniProt Q9SPL5)
T1 sequence (looked up): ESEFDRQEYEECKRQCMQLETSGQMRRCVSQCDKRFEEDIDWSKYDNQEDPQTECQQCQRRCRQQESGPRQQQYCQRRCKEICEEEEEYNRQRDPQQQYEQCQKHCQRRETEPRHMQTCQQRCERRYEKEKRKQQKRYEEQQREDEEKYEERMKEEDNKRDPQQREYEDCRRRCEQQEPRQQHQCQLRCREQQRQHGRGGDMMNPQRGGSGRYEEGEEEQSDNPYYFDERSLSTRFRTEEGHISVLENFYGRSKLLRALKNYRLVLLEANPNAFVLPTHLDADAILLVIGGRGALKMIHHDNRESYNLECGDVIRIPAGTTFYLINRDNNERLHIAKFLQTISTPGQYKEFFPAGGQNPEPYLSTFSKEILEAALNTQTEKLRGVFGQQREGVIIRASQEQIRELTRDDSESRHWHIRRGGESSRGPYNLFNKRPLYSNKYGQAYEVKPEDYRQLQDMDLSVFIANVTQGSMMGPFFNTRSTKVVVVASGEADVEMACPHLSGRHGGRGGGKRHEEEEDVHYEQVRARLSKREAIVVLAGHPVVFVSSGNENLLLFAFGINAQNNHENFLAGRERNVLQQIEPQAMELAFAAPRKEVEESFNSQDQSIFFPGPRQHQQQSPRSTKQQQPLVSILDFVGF
Assay: Co-IP from macadamia protein with Ni-NTA magnetic beads on the nanobody His tag, Western blot, LC-MS/MS of the excised band

B1: 纳米抗体Nb58 (VHH, not shown: small tags and cut ends)
VHH: QVQLQESGGGLVQAGDSLRLSCAASGLTFSTYAMGWFRQAPGTEREFVATISRSGKSTNYADSMKGRFTISRDNAKNTVYLQMNSLKPEDTAVYYCAAAPLPSYYGGISYRGNEAQYWGQGTQVTVSS
B1 was tested, and the binding was “binds”.

B2: 纳米抗体Nb68 (VHH, not shown: small tags and cut ends)
VHH: QVQLQESGGGLVQPGGSLRLSCWASGFTFSSSAMYWIRQAPGKGLEWVSAIYNNGITSYTDSVKGRFTISRDNAKNTVYLQMNNLKPEDTAVYYCARSPGSVRGQGTQVTVSS
In the case of B2, the binding is reported as “binds”.

B3: 纳米抗体Nb81 (VHH, not shown: small tags and cut ends)
VHH: QVQLQESGGGLVQAGGSLRLSCAASGRAFSNYAMGWFRQAPGKEREFVAGIRRLGGSTYYADSVKGRFTISRDNAKNTVYLQMNSLKPEDTAVYYCAVSERYREFSRAGMDYWGKGTQVTVSS
In the case of B3, the binding is reported as “binds”.

B4: 纳米抗体Nb135 (VHH, not shown: small tags and cut ends)
VHH: QVQLQESGGGLVQTGGSLKLSCTASGRTFSRYNMGWFRQAPGKEREFVAAISWSGVTYYEDSVKGRFTISRDNAQNTVYLQMNSLKTEDTAVYSCAADWNGILRTTASTYDYWGQGTQVTVSS
In the case of B4, the binding is reported as “binds”.

B5: 纳米抗体Nb139 (VHH, not shown: small tags and cut ends)
VHH: QVQLQESGGGLVQAGGSLRLSCAASGLTFSTYALGWFRQAPGKEREFVVAISRSGGRTNYADSVKGRFTISRDNAKNTVFLQMNSLKPEDTAIYYCAARYSSTYYSTFADPGYDYWGQGTQVTVSS
With B5 the binding was “binds”.
